Data reported in article PMC8007706, “Structural and functional analysis of LIM domain-dependent recruitment of paxillin to αvβ3 integrin-positive focal adhesions” (Communications Biology, 2021).
No constants are given. Whether binding was seen depends on the method and setting. Some results given as binding are weak or reduced against the parent protein; the word gives no strength.

Chains of the proteins cited; added tags and fusions are not shown. Lines headed by an entry give the natural chain unless they say otherwise; changes in a name come on top. A line that says so, or that is headed by a name, gives the form on record, which may keep a tag or linker. Residues count along the entry.
UniProt P26039, residues 1-405: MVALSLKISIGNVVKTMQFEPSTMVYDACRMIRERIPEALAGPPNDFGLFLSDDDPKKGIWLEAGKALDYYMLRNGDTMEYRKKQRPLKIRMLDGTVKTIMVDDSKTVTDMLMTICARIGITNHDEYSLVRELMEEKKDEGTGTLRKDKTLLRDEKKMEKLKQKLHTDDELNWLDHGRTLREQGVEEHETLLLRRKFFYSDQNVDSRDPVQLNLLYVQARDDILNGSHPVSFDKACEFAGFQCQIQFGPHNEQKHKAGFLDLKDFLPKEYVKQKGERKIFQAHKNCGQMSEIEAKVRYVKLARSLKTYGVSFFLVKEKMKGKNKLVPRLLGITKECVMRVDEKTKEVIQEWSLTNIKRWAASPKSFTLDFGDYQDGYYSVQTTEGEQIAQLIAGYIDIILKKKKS
GST-fused paxillin LIM domains, LIM 1234 (P49023, residues 351-591): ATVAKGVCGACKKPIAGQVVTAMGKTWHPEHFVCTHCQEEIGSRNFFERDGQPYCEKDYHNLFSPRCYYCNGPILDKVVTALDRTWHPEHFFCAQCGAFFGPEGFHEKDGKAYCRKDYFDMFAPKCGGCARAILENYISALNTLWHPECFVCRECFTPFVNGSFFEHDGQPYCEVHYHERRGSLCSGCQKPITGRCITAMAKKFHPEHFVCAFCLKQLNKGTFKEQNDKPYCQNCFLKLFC
GST-fused paxillin LIM domains, LIM 1224 (P49023-2, form named): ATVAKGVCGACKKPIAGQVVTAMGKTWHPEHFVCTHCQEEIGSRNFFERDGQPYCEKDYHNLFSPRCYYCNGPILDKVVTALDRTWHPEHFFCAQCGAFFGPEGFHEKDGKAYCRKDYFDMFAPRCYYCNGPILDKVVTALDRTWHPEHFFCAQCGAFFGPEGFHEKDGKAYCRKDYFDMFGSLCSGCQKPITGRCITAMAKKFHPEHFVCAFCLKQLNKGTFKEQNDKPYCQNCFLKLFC
GST-fused paxillin LIM domains, LIM 1334 (P49023-2, form named): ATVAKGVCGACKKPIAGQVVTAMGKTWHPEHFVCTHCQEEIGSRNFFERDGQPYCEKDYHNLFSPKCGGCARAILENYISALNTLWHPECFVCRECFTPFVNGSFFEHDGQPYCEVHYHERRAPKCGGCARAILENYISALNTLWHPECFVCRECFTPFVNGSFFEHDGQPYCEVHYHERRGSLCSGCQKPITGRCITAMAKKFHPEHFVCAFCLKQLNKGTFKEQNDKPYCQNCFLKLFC

Legend:
[1] = target: His-tagged talin-head domain (talin 1–405 aa), immobilised on the Ni-NTA sensor (UniProt P26039); test: BLI; Octet RED384; His-tagged talin head (50 µg/ml) immobilised on Ni-NTA sensor and covalently coupled (EDC/NHS, ethanolamine quench); GST-tagged paxillin LIM constructs in solution at 20, 80, 320, 1250 and 5000 nM; 50 mM NaPO3, 150 mM NaCl, pH 7.2; 27 °C, 1000 rpm; free GST response subtracted; response at 320 nM reported; both purified
[2] = target: His-tagged talin-head domain (talin 1–405 aa), immobilised on the Ni-NTA sensor (UniProt P26039); test: condition: measured at 20, 80, 320, 1250, and 5000 nM; response at 320 nM reported; BLI; Octet RED384; His-tagged talin head (50 µg/ml) immobilised on Ni-NTA sensor and covalently coupled (EDC/NHS, ethanolamine quench); GST-tagged paxillin LIM constructs in solution at 20, 80, 320, 1250 and 5000 nM; 50 mM NaPO3, 150 mM NaCl, pH 7.2; 27 °C, 1000 rpm; free GST response subtracted; response at 320 nM reported; both purified

binding [1]	binding [2]	Substance
binds		GST-fused paxillin LIM domains, LIM 1224 (from UniProt P49023-2 317-440; P49023-2 382-438; P49023-2 498-557) (domain or fragment)
binds		GST-fused paxillin LIM domains, LIM 1234 (from UniProt P49023-2 317-557) (domain or fragment)
	no binding	GST-fused paxillin LIM domains, LIM 1334 (from UniProt P49023-2 317-381; P49023-2 441-497; P49023-2 439-557) (domain or fragment)
